From patent publication US10344071B2, “Identification of novel anti-fibrotic peptide in C-terminal region of the MET receptor tyrosine kinase” (MUSC Foundation for Research Development, priority 2015, dated 2019)
At least one peptide structure holds a part that was inferred or is arguable (an end, a ring closure or a residue). Ends that are not written are not given here.

System: alveolar epithelial cells (AEC, A549)
Assay: Caspase 3 Assay, FasL- and cisplatin-induced apoptosis
Assay type: cell-based, human
Conditions: 24 hours, peptide treatment, p<0.01
Method: FIG. 7 depicts alveolar epithelial cells (AEC) transfected with MET WT but not with MET D1398G are protected from FasL- and cisplatin-induced apoptosis. Transfected AEC were incubated with or without FasL or cisplatin for 24 hours, collected with lysis buffer and analyzed by Caspase 3 Assay as detailed in Materials and Methods.
FIG. 17A depicts 1403 and 1404 peptides inhibit collagen in TGFβ-stimulated LF. Cells were incubated with and without TGFβ (5 ng/ml), 1403, and 1404 peptides (1 μg/ml) or scrambled peptide (Control, Co) for 24 h and analyzed by immunoblotting using anti-collagen type I antibody. FIG. 17B depicts 1403 and 1404 but not M10 protect AEC from FasL- and cisplatin-induced apoptosis. AEC were incubated with or without 1403, 1404, or scrambled (Control) peptides, FasL, and cisplatin for 24 hours and analyzed by Caspase 3 Assay from Abcam.
Caspase 3 Assay Kit (Abcam, Cambridge, Mass.) was used to detect apoptosis in cultured cells. […] Cell lysates were collected in accordance to with the manufacturer's instructions, transferred to a 96-well plate, and incubated with DEVD-p-NA substrate at 37° C. for 2 hours followed by reading the absorbance at 405 nm on a spectrophotometer. […]
To investigate if the 1403 and 1404 peptides have anti-apoptotic effects in AEC, apoptosis of AEC was induced with FasL and cisplatin and measured caspase 3 activity in cell lysates. […]

**Q.** Which results are given for TRPASFWETS [M10]?
**A.** FasL-induced apoptosis (caspase 3 activity): but not; cisplatin-induced apoptosis (caspase 3 activity): but not
